Experimental data: PubChem BioAssay AID1259405 (NCATS, 2018)
The whole screen tested about 50,000 reagents; this is a part drawn at random. Of all reagents, about 4,000 (8%) are marked active. 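Mouse siRNA library applied to hamster cells; one well for each siRNA.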 Entries without a mark were called inactive. Reagents against one gene are numbered here. No sequences are given here.

- Aim: 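Silenced genes that increase secreted GFP made by CHO cells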 (primary screen)
- System: Chinese hamster CHO-K1 ovary cells with stable secreted eGFP expression
- Knock-down reagent: single siRNA against mouse genes, 0.8 pmol siRNA per well (2 µl of 400 nM stock)
- Time to read-out: 3 days
- Read-out: 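Per-well intracellular GFP measured by laser scanning cytometry, plus viability from ATP luminescence, each relative to plate median of non-targeting control wells, in %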
- Direction: GFP, % of control: higher = more GFP per well, higher productivity; viability (ATP), % of control: higher = more viable cells (more ATP)
- Active means: 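Called active when intracellular GFP, relative to negative control, is at or above 120%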

Mccc2 (methylcrotonoyl-Coenzyme A carboxylase 2 (beta)) #1 | GFP, % of control: 26; viability (ATP), % of control: 43.9
Mccc2 (methylcrotonoyl-Coenzyme A carboxylase 2 (beta)) #2 | GFP, % of control: 78.3; viability (ATP), % of control: 97.9
Mccc2 (methylcrotonoyl-Coenzyme A carboxylase 2 (beta)) #3 | GFP, % of control: 76.9; viability (ATP), % of control: 80.1
Acap3 (ArfGAP with coiled-coil, ankyrin repeat and PH domains 3) #1 | GFP, % of control: 129 (active); viability (ATP), % of control: 77.2
Acap3 (ArfGAP with coiled-coil, ankyrin repeat and PH domains 3) #2 | GFP, % of control: 102; viability (ATP), % of control: 73
Acap3 (ArfGAP with coiled-coil, ankyrin repeat and PH domains 3) #3 | GFP, % of control: 105; viability (ATP), % of control: 84.2
Atp6v0e2 (ATPase, H+ transporting, lysosomal V0 subunit E2) #1 | GFP, % of control: 65.4; viability (ATP), % of control: 57.7
Atp6v0e2 (ATPase, H+ transporting, lysosomal V0 subunit E2) #2 | GFP, % of control: 119; viability (ATP), % of control: 110
Atp6v0e2 (ATPase, H+ transporting, lysosomal V0 subunit E2) #3 | GFP, % of control: 67.4; viability (ATP), % of control: 85.3
Mrtfa (myocardin related transcription factor A) #1 | GFP, % of control: 78.2; viability (ATP), % of control: 86.2
Mrtfa (myocardin related transcription factor A) #2 | GFP, % of control: 70.4; viability (ATP), % of control: 73.9
Mrtfa (myocardin related transcription factor A) #3 | GFP, % of control: 55.6; viability (ATP), % of control: 82.1
Rraga (Ras-related GTP binding A) #1 | GFP, % of control: 42.5; viability (ATP), % of control: 73.2
Rraga (Ras-related GTP binding A) #2 | GFP, % of control: 74.7; viability (ATP), % of control: 82.6
Rraga (Ras-related GTP binding A) #3 | GFP, % of control: 90.3; viability (ATP), % of control: 83
Tgif2lx1 (TGFB-induced factor homeobox 2-like, X-linked 1) #1 | GFP, % of control: 126 (active); viability (ATP), % of control: 133
Tgif2lx1 (TGFB-induced factor homeobox 2-like, X-linked 1) #2 | GFP, % of control: 93.5; viability (ATP), % of control: 84.2
Tgif2lx1 (TGFB-induced factor homeobox 2-like, X-linked 1) #3 | GFP, % of control: 95.8; viability (ATP), % of control: 87.9
Slc17a9 #1 | GFP, % of control: 41.3; viability (ATP), % of control: 65.2
Slc17a9 #2 | GFP, % of control: 45.9; viability (ATP), % of control: 54.2
Slc17a9 #3 | GFP, % of control: 85.4; viability (ATP), % of control: 61.4
Prkcb (protein kinase C, beta) #1 | GFP, % of control: 56.8; viability (ATP), % of control: 68
Prkcb (protein kinase C, beta) #2 | GFP, % of control: 77.3; viability (ATP), % of control: 93.1
Prkcb (protein kinase C, beta) #3 | GFP, % of control: 43.9; viability (ATP), % of control: 51.7
Slc5a4a #1 | GFP, % of control: 128 (active); viability (ATP), % of control: 100
Slc5a4a #2 | GFP, % of control: 41.6; viability (ATP), % of control: 37.8
Slc5a4a #3 | GFP, % of control: 77.6; viability (ATP), % of control: 89.6

Targets above whose gene name starts with S or s:
Slc17a9 #1 | GFP, % of control: 41.3; viability (ATP), % of control: 65.2
Slc17a9 #2 | GFP, % of control: 45.9; viability (ATP), % of control: 54.2
Slc17a9 #3 | GFP, % of control: 85.4; viability (ATP), % of control: 61.4
Slc5a4a #1 | GFP, % of control: 128 (active); viability (ATP), % of control: 100
Slc5a4a #2 | GFP, % of control: 41.6; viability (ATP), % of control: 37.8
Slc5a4a #3 | GFP, % of control: 77.6; viability (ATP), % of control: 89.6

Continued.
Washc2 (WASH complex subunit 2) #1 | GFP, % of control: 69; viability (ATP), % of control: 82.1
Washc2 (WASH complex subunit 2) #2 | GFP, % of control: 73.8; viability (ATP), % of control: 69.7
Washc2 (WASH complex subunit 2) #3 | GFP, % of control: 58.3; viability (ATP), % of control: 30.4
Bola3 (bolA family member 3) #1 | GFP, % of control: 48.2; viability (ATP), % of control: 69.7
Bola3 (bolA family member 3) #2 | GFP, % of control: 80.7; viability (ATP), % of control: 46.3
Bola3 (bolA family member 3) #3 | GFP, % of control: 74.9; viability (ATP), % of control: 87.5
Lrp1 (low density lipoprotein receptor-related protein 1) #1 | GFP, % of control: 101; viability (ATP), % of control: 109
Lrp1 (low density lipoprotein receptor-related protein 1) #2 | GFP, % of control: 69.9; viability (ATP), % of control: 55.5
Lrp1 (low density lipoprotein receptor-related protein 1) #3 | GFP, % of control: 37; viability (ATP), % of control: 63.9
Jmjd6 (jumonji domain containing 6) #1 | GFP, % of control: 101; viability (ATP), % of control: 124
Jmjd6 (jumonji domain containing 6) #2 | GFP, % of control: 74.1; viability (ATP), % of control: 41.7
Jmjd6 (jumonji domain containing 6) #3 | GFP, % of control: 85.2; viability (ATP), % of control: 89.4
Ankle1 (ankyrin repeat and LEM domain containing 1) #1 | GFP, % of control: 78; viability (ATP), % of control: 80.8
Ankle1 (ankyrin repeat and LEM domain containing 1) #2 | GFP, % of control: 85.8; viability (ATP), % of control: 92.3
Ankle1 (ankyrin repeat and LEM domain containing 1) #3 | GFP, % of control: 85.2; viability (ATP), % of control: 97.9
